The results in this text go back to PMC10177328, “High Intrinsic Oncogenic Potential in the Myc-Box-Deficient Hydra Myc3 Protein”.

Construct, isoform or probe ends are uncertain for at least one entry. At least one verdict rests on a figure or table, not on a statement of the authors. Tags and fusion partners may be left off the protein sequences shown.

The series deals with T1, Hydra Max bHLH-LZ (p13) (UniProt D0EM50).
T1 sequence (looked up): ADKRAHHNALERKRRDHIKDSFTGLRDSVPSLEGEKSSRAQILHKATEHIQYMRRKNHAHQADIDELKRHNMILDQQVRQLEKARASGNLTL
Put plainly: EMSA. As to conditions: homodimer, 2 uM protein; EMSA: 10 mM Tris-HCl pH 7.5, 0.5 mM EDTA, 65 mM KCl, 5 mM MgCl2, 1 mM DTT, 100 ug/mL BSA, 10% glycerol, 25 C, 45 min; native 6% PAGE; recombinant protein; residues 29-120; protein details: N-terminal initiator Met, C-terminal His6; label: 32P. For orientation: Mobility shift assays separate free from complexed probe on a gel.

As to “ATAGCTCACGTGTCAATA (double strand) [myc2 promoter E-box 18-mer]”, the binding result is recorded as “binds”.
